From PubChem BioAssay AID587 (National Center for Advancing Translational Sciences (NCATS), 2007)
The campaign covered roughly 59,000 compounds. About 35 (0.06%) were called active. The inconclusive results got no clear call from the source; some entries with a clear call stand among them for comparison. Rule as the data show it: active = max dye-equivalent concentration above about 10 nM; inconclusive = between about 1.1 nM and that limit; inactive = weaker than that.

assay: qHTS Assay for Spectroscopic Profiling in Texas Red Spectral Region; conditions: Compound fluorescence, Texas Red channel, 547/618 nm; stronger effect = higher value
In short: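 Compound titrations in 100 mM Tris pH 8.0 were incubated 15 min at room temperature and read at 547 nm excitation / 618 nm emission. Texas Red six-point standard curve on each plate converted fluorescence to dye-equivalent concentration.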

Row | SMILES | max dye-equivalent concentration
1 | CCOC(=O)N1CCN(C(=O)c2ccc(C)c(S(=O)(=O)Nc3cccc(C)c3C)c2)CC1 | inconclusive: 1.5 nM
2 | CCc1ccc2[nH]c(=O)c(CN(Cc3ccccc3)Cc3nnnn3Cc3ccco3)cc2c1 | inconclusive: 1.9 nM
3 | COC(=O)CN1C(=O)C2(C(C#N)=C(N)Oc3n[nH]c(-c4cccs4)c32)c2ccccc21 (stereo unspecified) | inconclusive: 1.5 nM
4 | CC(C)(C)c1onc(OCP(=O)(O)O)c1C[C@@H](N)C(=O)O | inconclusive: 1.7 nM
5 | CC(C)CCOCC(=O)Oc1ccccc1C(=O)O | inconclusive: 1.7 nM
6 | Cc1cnnc2c1-c1no[n+]([O-])c1CC2 | inconclusive: 1.3 nM
7 | CS(=O)(=O)Nc1ccc(C(=O)NC2CCCC2)cc1 | inconclusive: 1.2 nM
8 | COc1cccc2c1C(=N)c1c(O)c3c(c(O)c1C2=O)C[C@](O)(C(C)=O)C[C@@H]3O[C@H]1C[C@H](N)[C@@H](O)[C@H](C)O1 | active: 10 nM
9 | O=C(NCCCn1ccnc1)c1noc2c1CCc1ccccc1-2 | inconclusive: 1.1 nM
10 | CC(C)n1c(-c2ccc(N(C)C)cc2)nc2ccccc21 | inconclusive: 1.3 nM
11 | COC(=O)c1ccccc1NC(=O)C(C)Oc1ccccc1 (stereo unspecified) | inconclusive: 1.7 nM
12 | CCCCSC1=C(C#N)C(c2ccccc2C)C(C(=O)OCC)C(=O)N1 (stereo unspecified) | inconclusive: 1.2 nM
13 | N#Cc1ccc(NC(=O)c2cc3cc4c5c(c3oc2=N)CCCN5CCC4)cc1 | inactive
14 | Cc1cc(C(=O)OCC(=O)NCc2ccco2)c(C)n1-c1ccccc1 | inconclusive: 1.8 nM
15 | O=C(Nc1cccnc1)c1ccc(Oc2ccccc2)cc1 | inconclusive: 1.3 nM
16 | O=C1CC(c2ccc(F)cc2)Cc2nc(NCc3ccco3)ncc21 (stereo unspecified) | inconclusive: 1.5 nM
17 | O=C1CC(c2cccs2)c2cc3c(cc2N1)OCO3 (stereo unspecified) | inconclusive: 1.1 nM
18 | COc1ccc(NCc2c(O)ccc3ccccc23)cc1 | inactive
19 | CC(C)CCn1c(SCc2ccc(Cl)cc2)nc2c1c(=O)[nH]c(=O)n2C | inconclusive: 1.3 nM

2 records picked at random from the list so far:
Row | SMILES | max dye-equivalent concentration
10 | CC(C)n1c(-c2ccc(N(C)C)cc2)nc2ccccc21 | inconclusive: 1.3 nM
13 | N#Cc1ccc(NC(=O)c2cc3cc4c5c(c3oc2=N)CCCN5CCC4)cc1 | inactive

Going on with the list.

Row | SMILES | max dye-equivalent concentration
20 | CCOc1ccc(C2=Nn3c(nnc3-c3ccc(OC)cc3)SC2)cc1 | inconclusive: 1.1 nM
21 | CN(C)S(=O)(=O)n1cnc(-c2ccccc2)c1-c1ccccc1 | inconclusive: 1.8 nM
22 | O=C(NCc1ccccc1)N(Cc1cc2cc3c(cc2[nH]c1=O)OCO3)CC1CCCO1 (stereo unspecified) | inconclusive: 1.2 nM
23 | Cc1ccc(Cl)cc1N1CCN(C(=O)c2ccc(CN3CCOCC3)cc2)CC1 | inconclusive: 2.5 nM
24 | Fc1ccc(-n2cnnn2)c(F)c1 | inconclusive: 1.9 nM
25 | c1c[nH]c(CN2CCOCC2)n1 | inactive
26 | O=C(O)CN1C(=O)Nc2ccc(Br)cc2C1c1ccccc1 (stereo unspecified) | inconclusive: 2.8 nM
27 | Cc1ccc(S(=O)(=O)NC2CCCC(C(=O)O)C2)cc1 (stereo unspecified) | inconclusive: 1.9 nM
28 | CCOC(=O)c1cc2sc(C)cc2n1CC(=O)N1CCN(C(=O)c2ccco2)CC1 | inconclusive: 1.2 nM
29 | CCCCCNC(=O)C(C#N)c1nc2ccccc2nc1N1CCCC1 (stereo unspecified) | inactive
30 | Nc1ccccc1N=Nc1c(S(=O)(=O)O)cc2cc(S(=O)(=O)O)cc(O)c2c1O | inconclusive: 1.2 nM
31 | Cn1c(CCNC(=O)c2ccco2)nc2cc(NS(=O)(=O)c3ccc(Cl)cc3)ccc21 | inconclusive: 2.2 nM
32 | COCCn1c(N)c(C(=O)OCc2ccccc2)c2nc3ccccc3nc21 | inconclusive: 1.5 nM
33 | Cc1ccccc1NC(=O)c1cccc2nccnc12 | inconclusive: 1.8 nM
34 | CN(C)c1ccc(-c2nc(NCCN3CCOCC3)c3ccccc3n2)cc1 | inactive
35 | CCn1c(CC(=O)Nc2cccc(OC)c2)nnc1SCC(=O)Nc1nccs1 | inconclusive: 1.3 nM
36 | CCOC(=O)c1cc2c(=O)n3cccc(C)c3nc2n(Cc2ccccc2Cl)c1=N | inconclusive: 1.2 nM
37 | N#Cc1ccccc1NC(=O)c1ccccc1OCC(=O)Nc1ccc2c(c1)oc1ccccc12 | inconclusive: 1.6 nM
38 | O=C1Nc2ccc(S(=O)(=O)NCc3ccccn3)c3cccc1c23 | inconclusive: 1.9 nM

Row | SMILES | max dye-equivalent concentration
39 | Cc1c(C(=O)O)oc2c1C(O)CCC2 (stereo unspecified) | inconclusive: 1.3 nM
40 | Cn1c(N2CCC(C(N)=O)CC2)nc2c1c(=O)n(Cc1cccc(Br)c1)c(=O)n2C | inconclusive: 2.1 nM
41 | CC1(C)NC(C)(C)C(O)(C(N)=O)C1=O (stereo unspecified) | inconclusive: 1.4 nM
42 | c1ccc(-n2c(-c3ccncc3)nnc2N2CCOCC2)cc1 | inconclusive: 1.5 nM
43 | CCN1C(=O)c2cccc3cccc1c23 | inconclusive: 1.6 nM
44 | Cc1cc2cc(CCNC(=O)c3ccc(Br)o3)c(=O)[nH]c2cc1C | inconclusive: 1.7 nM
45 | c1csc(-c2nc3ccccc3[nH]2)c1 | inconclusive: 1.4 nM
46 | CCN1CCN(c2nc3ccccc3nc2C(C#N)C(=O)OCc2ccccc2)CC1 (stereo unspecified) | inactive
47 | O=C(CSc1nnc(-c2ccccn2)n1Cc1ccco1)c1ccc(Cl)cc1 | inconclusive: 1.6 nM
48 | O=C(Cn1[nH]c(=O)c2ccccc2c1=O)NC1CCN(Cc2ccccc2)CC1 | inconclusive: 1.4 nM
49 | O=C(O)C12CC3(C(=O)O)CC(C(=O)O)(CC(C(=O)O)(C1)C3=O)C2=O | inconclusive: 1.5 nM
50 | COC(=O)CSc1nc2cc(C)ccc2cc1C#N | inconclusive: 1.8 nM
51 | Cc1ccc(SCCNC(=O)C(C)C)cc1 | inconclusive: 1.4 nM
52 | Cc1cc(C(F)(F)F)n2ncc(-c3ccccc3)c2n1 | inactive
53 | COc1ccc(C2CC(C(F)(F)F)n3ncc(C(=O)NCc4cccnc4)c3N2)cc1OC (stereo unspecified) | inconclusive: 1.6 nM
54 | COC(=O)c1c(NC(=O)CCc2ccc(C)o2)sc(C)c1C | inconclusive: 1.1 nM
55 | CN1CCN(C(=O)CCC(=O)c2ccc(F)cc2)CC1 | inconclusive: 1.1 nM
56 | CCCCN(C)Cc1c(C)[nH]c2c(Cl)cccc2c1=O | inconclusive: 1.2 nM
